A short description of this test: qHTS Assay to Find Inhibitors of Chronic Active B-Cell Receptor Signaling. As to conditions: ABC-DLBCL IkBa-CBG/CBR reporter, luminescence ratio (green luciferase fused to IkBa over red control in TMD8 lymphoma cells), 4 h. In a few lines:
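Concentration-response series (up to 46 uM) were applied to TMD8 dual-reporter cells for 4 h at 37C with doxycycline. Green/red ratio, after filter-overlap correction, defined %Activity; red signal alone was normalised to basal cells and zero luminescence.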

Where [1] appears, read: measured here: CBR red luminescence, cell number.

Some of the results follow. These are further read-outs of the screen, such as a control signal, another cell line or another target. No call is given for them. Compounds called inactive in the main read-out are mostly missing here. The note in brackets gives the kind of curve behind each potency; many fits are weak.

For the compound `CC(/C=C/c1ccccc1)=N\NC(=O)CNC(=O)c1ccccc1Cl`, the concentration at half-maximal activity (AC50) under setting [1] is 29.1 µM [rising, single point]. Regarding `COC(=O)c1sc(NC(=O)CSc2nnnn2-c2ccc(C)cc2C)nc1C`, the AC50 under setting [1] was 5.62 µM [falling, full curve, poor fit]. On to `CCCSC1=C(C#N)C(c2cc(OC)ccc2OC)CC(=O)N1` (stereo not drawn), for which the AC50 under setting [1] is 0.731 µM [rising, full curve, poor fit].

For `COc1cccc(-c2ccc(NC(=O)C3CCCN(CCCn4nc(C)cc4C)C3)cc2)c1` (stereo not drawn), the AC50 under setting [1] is 10 µM [falling, partial curve, poor fit].

Turning to `COc1cccc(OCCN2CCN(c3ncnc4c3cnn4-c3ccccc3)CC2)c1`, the concentration at half-maximal activity (AC50) under setting [1] was 6.31 µM [falling, single point]. Consider `Cc1cccc2cc(CN(CC(C)C)S(=O)(=O)c3ccccc3)c(=O)[nH]c12`, for which the AC50 under setting [1] was 0.282 µM [falling, full curve]. On the same count and under the same terms, with `O=S(=O)(N/N=C1\CC(c2ccccc2)Oc2ccccc21)c1ccccc1` (stereo not drawn) the figure was 35.5 µM [falling, single point]. Regarding `COC(=O)[C@@H]1CC[C@H](C)[C@@H](c2ccc(C)cc2)N1C(=O)c1ccc(/C=N/OC[C@@H](O)COCc2ccco2)cc1`, the half-maximal activity concentration (AC50) by setting is: under setting [1], 11.6 µM [falling, single point]; (measured here: IkBa-CBG green luminescence) 29.1 µM [rising, single point]. Consider `CCOC(=O)c1sc(NC(=O)c2ccc3ncsc3c2)nc1C`, for which the AC50 under setting [1] is 0.146 µM [falling, full curve].

Regarding `O=C(c1ccc(Oc2ccccc2)cc1)c1nc2c(n1O)CCCC2`, under setting [1], the AC50 is 9.2 µM [falling, partial curve, poor fit].

For `COc1ccc(C(CNC(=O)c2ccccc2C)N2CCCC2)cc1` (stereo not drawn), the AC50 under setting [1] was 0.651 µM [falling, full curve, poor fit]. `COc1ccc(C(=O)OCC(=O)NCC2CCCO2)cc1[N+](=O)[O-]` (stereo not drawn): the AC50 under setting [1] was 10 µM [rising, partial curve]. For the compound `COc1cc(/C=C/C(=O)N[C@@H](Cc2c[nH]c3ccccc23)C(=O)O)ccc1O`, under setting [1], the AC50 was 0.447 µM [rising, full curve, poor fit]. The same measure, in the same setting: as for `CCn1c(CSc2nc(C)cc(C)n2)nnc1SCC(=O)Nc1ccccc1`, the figure is 1.46 µM [rising, full curve, poor fit]. Same read-out and setting: with `COc1ccc(C2c3[nH]c4ccccc4c3CCN2C(=O)c2cc3ncccn3n2)c(F)c1` (stereo not drawn) the figure was 25.1 µM [falling, single point]; with `COc1ccc(NC(=O)c2ccc3[nH]c(C)c(C)c3c2)cc1`, 7.94 µM [falling, partial curve, poor fit]; with `O=C(O)c1ccccc1SC1CC(=O)N(c2ccccc2)C1=O` (stereo not drawn), 5.17 µM [falling, partial curve].
